Experimental data as given in paper PMC6611761.
No constants are given. Whether binding was seen depends on the method and setting. In cells and extracts the contact can be indirect. Some entries that bind do so weakly or less than the wild type.

The chains behind the UniProt entries cited, without tags or fusion partners. Where a name states a change or a piece, a line headed by the entry shows the natural chain unless it says otherwise. A line that says so, or that is headed by a name, gives the form on record, which may keep a tag or linker. Residues count along the entry.
Panx1∆379-EGFP (Q9JIP4, residues 1-378): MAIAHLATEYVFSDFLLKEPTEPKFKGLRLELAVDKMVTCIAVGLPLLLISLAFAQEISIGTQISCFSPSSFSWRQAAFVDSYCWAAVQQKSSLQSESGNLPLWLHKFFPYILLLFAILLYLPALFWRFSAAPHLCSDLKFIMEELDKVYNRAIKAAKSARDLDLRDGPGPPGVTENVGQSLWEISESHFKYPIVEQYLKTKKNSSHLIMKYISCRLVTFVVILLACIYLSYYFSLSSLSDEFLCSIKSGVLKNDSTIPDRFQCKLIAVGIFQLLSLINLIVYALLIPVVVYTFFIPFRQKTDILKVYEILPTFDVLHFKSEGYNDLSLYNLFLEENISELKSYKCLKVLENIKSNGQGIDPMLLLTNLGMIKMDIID
Panx1∆VS-EGFP (Q9JIP4, form named): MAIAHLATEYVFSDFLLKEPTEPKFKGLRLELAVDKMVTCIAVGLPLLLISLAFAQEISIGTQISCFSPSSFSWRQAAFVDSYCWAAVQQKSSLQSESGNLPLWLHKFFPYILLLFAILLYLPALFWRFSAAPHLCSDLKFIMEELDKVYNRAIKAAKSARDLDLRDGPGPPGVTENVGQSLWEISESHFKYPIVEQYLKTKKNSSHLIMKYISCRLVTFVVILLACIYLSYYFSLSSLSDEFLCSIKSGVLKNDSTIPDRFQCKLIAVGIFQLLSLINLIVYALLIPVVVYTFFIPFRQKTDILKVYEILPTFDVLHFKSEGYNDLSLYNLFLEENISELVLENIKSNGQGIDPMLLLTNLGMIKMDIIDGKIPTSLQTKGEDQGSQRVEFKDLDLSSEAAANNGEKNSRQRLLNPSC

What was measured:
Panx1∆379-EGFP (mouse) = Panx1∆379-EGFP (mouse) (UniProt Q9JIP4); assay: cross-linking; intact transfected HEK293T cells, 20 μg/mL cycloheximide for 8 h beforehand; 3 mM cell-impermeable BS3 in crosslinking buffer (20 mM PBS, 1 mM CaCl2, 0.5 mM MgCl2, pH 8) for 30 min on ice; lysates on 4-20% gradient SDS-PAGE, Western blot for GFP; shows surface-localized oligomers
Panx1∆VS-EGFP (mouse) = Panx1∆VS-EGFP (mouse) (UniProt Q9JIP4); assay: as above

| Substance | binding (Panx1∆379-EGFP (mouse)) | binding (Panx1∆VS-EGFP (mouse)) |
| --- | --- | --- |
| Panx1∆379-EGFP (from UniProt Q9JIP4 1-378) (domain or fragment) | binds |  |
| Panx1∆VS-EGFP (from UniProt Q9JIP4 1-426) |  | binds |
